Reference: publication doi:10.1101/2022.09.29.510157
No constants are given. Whether binding was seen depends on the method and setting. Binding can be weak; no strength is given.

Amino acid sequences for entries named in this document (tags omitted). A change or cut given only in a name is not applied to a line headed by its entry.
UniProt Q32KN8: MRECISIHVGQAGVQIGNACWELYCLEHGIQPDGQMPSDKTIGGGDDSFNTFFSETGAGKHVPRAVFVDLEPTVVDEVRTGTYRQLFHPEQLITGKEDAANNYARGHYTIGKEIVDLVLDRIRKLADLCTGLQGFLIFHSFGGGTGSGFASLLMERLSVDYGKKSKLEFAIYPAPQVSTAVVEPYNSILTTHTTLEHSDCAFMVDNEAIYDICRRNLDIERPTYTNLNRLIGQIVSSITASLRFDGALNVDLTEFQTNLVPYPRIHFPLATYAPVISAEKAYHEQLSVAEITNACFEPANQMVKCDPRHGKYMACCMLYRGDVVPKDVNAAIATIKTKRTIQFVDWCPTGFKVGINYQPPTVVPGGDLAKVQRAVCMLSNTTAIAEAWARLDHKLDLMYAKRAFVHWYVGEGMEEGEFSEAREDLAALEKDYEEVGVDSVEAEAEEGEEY
UniProt Q3MHM5: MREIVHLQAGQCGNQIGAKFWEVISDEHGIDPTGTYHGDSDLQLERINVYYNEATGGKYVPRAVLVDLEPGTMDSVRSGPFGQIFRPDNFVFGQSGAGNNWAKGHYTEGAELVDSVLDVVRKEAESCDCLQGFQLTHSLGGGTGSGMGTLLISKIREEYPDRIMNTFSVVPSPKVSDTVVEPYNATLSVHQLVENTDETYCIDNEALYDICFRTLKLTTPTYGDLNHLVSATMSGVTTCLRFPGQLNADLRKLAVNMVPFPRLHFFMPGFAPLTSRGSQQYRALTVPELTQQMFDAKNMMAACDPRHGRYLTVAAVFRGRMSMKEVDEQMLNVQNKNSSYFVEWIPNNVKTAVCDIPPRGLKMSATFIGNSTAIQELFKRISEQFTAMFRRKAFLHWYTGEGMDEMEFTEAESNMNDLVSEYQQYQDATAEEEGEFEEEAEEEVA
UniProt Q32KP0: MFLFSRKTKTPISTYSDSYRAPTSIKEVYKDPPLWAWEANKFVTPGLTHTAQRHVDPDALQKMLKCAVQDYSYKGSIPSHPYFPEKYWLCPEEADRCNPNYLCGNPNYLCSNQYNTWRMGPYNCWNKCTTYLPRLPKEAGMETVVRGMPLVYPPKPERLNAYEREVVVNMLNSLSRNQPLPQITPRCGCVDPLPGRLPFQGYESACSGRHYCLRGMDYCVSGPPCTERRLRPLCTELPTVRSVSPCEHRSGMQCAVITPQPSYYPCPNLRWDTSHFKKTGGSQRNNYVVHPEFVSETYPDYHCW

Key:
Assay in all cases: cryo-EM structure
[1] = molecular target: T1, MNS1 (bovine (endogenous in bovine sperm)) (UniProt Q2KIQ2)
T1 sequence: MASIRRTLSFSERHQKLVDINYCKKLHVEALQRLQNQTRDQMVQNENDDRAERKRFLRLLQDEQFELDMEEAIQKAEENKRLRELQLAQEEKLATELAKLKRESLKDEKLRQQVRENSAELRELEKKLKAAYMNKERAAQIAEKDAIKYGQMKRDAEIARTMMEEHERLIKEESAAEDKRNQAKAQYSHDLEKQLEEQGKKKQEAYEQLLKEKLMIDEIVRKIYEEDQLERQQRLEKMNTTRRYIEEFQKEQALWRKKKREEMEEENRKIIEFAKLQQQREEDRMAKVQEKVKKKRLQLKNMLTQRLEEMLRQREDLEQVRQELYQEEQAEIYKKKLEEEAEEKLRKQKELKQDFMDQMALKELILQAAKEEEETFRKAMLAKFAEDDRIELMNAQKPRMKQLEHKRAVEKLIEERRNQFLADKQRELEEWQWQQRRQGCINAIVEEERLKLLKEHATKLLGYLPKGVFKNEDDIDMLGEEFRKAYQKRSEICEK

[2] = molecular target: T2, Tektin-5 (bovine (endogenous in bovine sperm)) (UniProt Q2YDI7)
T2 sequence: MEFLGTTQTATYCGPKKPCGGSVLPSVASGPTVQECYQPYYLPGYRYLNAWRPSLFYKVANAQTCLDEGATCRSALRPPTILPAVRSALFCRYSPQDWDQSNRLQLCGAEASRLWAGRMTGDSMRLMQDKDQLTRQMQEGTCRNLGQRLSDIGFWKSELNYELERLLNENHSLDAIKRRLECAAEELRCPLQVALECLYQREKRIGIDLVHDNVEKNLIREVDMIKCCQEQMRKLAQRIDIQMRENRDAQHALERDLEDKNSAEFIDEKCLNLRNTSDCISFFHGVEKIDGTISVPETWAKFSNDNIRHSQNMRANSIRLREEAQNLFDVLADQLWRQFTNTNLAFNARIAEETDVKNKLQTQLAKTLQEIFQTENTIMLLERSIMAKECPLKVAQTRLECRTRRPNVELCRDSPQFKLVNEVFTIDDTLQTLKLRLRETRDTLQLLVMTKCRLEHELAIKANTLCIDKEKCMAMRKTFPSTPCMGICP

[3] = molecular target: T3, Tektin-1 (bovine (endogenous in bovine sperm)) (UniProt Q32KZ9)
T3 sequence: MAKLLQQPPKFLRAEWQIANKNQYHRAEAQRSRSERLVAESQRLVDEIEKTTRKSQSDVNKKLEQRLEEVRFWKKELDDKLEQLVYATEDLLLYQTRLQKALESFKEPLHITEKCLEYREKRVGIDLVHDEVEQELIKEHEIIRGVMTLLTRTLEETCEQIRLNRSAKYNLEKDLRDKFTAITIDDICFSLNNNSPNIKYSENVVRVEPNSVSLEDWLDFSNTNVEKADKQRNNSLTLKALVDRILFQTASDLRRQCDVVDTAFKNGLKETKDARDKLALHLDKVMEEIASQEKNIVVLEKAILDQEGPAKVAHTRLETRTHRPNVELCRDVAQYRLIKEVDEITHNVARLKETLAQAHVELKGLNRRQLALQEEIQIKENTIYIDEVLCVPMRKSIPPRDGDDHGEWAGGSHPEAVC

[4] = molecular target: α-tubulin (TUBA3) (bovine (endogenous in bovine sperm)) (UniProt Q32KN8)
[5] = molecular target: β-tubulin (TUBB4B) (bovine (endogenous in bovine sperm)) (UniProt Q3MHM5)
[6] = molecular target: T4, TEKTIP (bovine (endogenous in bovine sperm)) (UniProt Q2M2T2)
T4 sequence: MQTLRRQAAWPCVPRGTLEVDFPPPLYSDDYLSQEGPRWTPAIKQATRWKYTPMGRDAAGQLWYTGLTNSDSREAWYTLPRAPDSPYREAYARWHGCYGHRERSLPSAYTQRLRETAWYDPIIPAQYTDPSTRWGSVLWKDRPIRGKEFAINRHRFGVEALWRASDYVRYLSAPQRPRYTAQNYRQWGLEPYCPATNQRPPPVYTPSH

[7] = molecular target: T5, Tektin-4 (bovine (endogenous in bovine sperm)) (UniProt Q2TA38)
T5 sequence: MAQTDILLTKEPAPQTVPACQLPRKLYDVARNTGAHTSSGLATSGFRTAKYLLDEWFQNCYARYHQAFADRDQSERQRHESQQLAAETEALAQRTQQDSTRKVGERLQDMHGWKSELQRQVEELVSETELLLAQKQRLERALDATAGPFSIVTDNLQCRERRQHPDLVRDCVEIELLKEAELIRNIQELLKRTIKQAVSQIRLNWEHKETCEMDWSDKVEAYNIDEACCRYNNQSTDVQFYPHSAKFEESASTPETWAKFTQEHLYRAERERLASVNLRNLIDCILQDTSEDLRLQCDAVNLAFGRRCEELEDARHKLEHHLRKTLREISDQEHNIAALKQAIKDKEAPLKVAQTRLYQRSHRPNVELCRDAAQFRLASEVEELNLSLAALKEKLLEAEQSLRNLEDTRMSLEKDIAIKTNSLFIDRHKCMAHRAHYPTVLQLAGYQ

Substance: C7ORF31 (bovine (endogenous in bovine sperm))
- binding [1]: binds
- binding [2]: binds

Substance: PPP1R32 (protein phosphatase 1 regulatory subunit 32) (from UniProt A0A3Q1M7R5)
- binding [3]: binds
- binding [4]: binds
- binding [5]: binds

Substance: SMRP1 (spermatid-specific manchette-related protein 1) (from UniProt Q32KP0)
- binding [6]: binds
- binding [7]: binds

Substance: tubulin-and tektin-bridging protein (TTBP) (from UniProt A0A3Q1M4T9)
- binding [7]: binds
